# Reference: PubChem BioAssay AID1347426 (Functional Genomics Laboratory (NCATS/FGL), 2020)
# Screen size: about 31,000 sequences; about 1,400 (4.5%) were called active.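 The calls were made as follows: active = median seed-adjusted z-score above 1 or below -1; inactive = the rest.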 This is one part of the list.
# Assay: Novel Modifiers of Survival Motor Neuron (SMN) Protein: Gene Identification via Genome-wide siRNA Screen;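 also: luminescence tracks full-length SMN protein made from the SMN2 reporter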
# Details: HEK293T SMN2-luciferase reporter, siRNA knockdown, 72 h; actives lie on both sides
# How it was run: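 siRNA screen, 10418 genes ×3 siRNAs; 1 pmol/well, lipid reverse transfection into HEK293T SMN2-luc reporter line. 72 h, 37 °C, 5% CO2; ONE-Glo readout. Data: neg-ctrl normalized, log10, MAD; hit = MAD >1.0 or < -1.0.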
row,Sequence,median seed-adjusted z-score
1,ACAUGAGUAUCCAUACGAATT against LOC650864,inactive: 0.214
2,GAGCCUCCUCAAAUCCAAATT against SERPING1,inactive: -0.244
3,GCUCCUAACGCAUCACAGATT against ZNF605,inactive: -0.596
4,CAUGCAAACUAGAUACUUATT against LMX1A,inactive: 0.15
5,AGAACCUCUUAUGACCUUUTT against RICH2,inactive: 0.4
6,CAAAGCCCUUGUUAAGUUUTT against ATP7B,inactive: 0.0947
7,GCUUGGAGGUGAUUAAGGATT against TRIM9,inactive: -0.437
8,CAAUGGUGGUGUGAGUCGATT against KCNA6,inactive: 0
9,GCCCAGACCUUGUUCUCUATT against CHRNA1,inactive: -0.32
10,GCUGCACACCGAGUACUCATT against STK40,inactive: -0.555
11,CCCUCGUCUACUACACUUATT against ABCD4,inactive: -0.114
12,CGAGUUCAUCGUGUACUAUTT against RAMP3,inactive: 0
13,AGAUGUACGCCUUCACUGUTT against NPTX1,inactive: -0.117
14,GGCUGAAGCUCUAAAGCGATT against DDX23,inactive: -0.468
15,CCAGAUGUAUAGUACUGAUTT against ME1,inactive: -0.258
16,GCAUGCUACCUCAAGUCAATT against IL15RA,inactive: -0.0113
17,CUAUUACUCUUGCAGCUAUTT against TBC1D9,inactive: -0.0473
18,GGUCUGGAGUUCAAACUCUTT against TMTC1,inactive: -0.147
19,CUACAGGAAUAUUACUUUATT against DCPS,inactive: 0.669
20,AGACUUUAAGGAGAAAACATT against YAF2,inactive: 0
21,CGGUGAUUGUGGAGAUGAATT against MAG,inactive: -0.0667
22,UCAGCUAUUUCAUCAAAUATT against ZDHHC15,inactive: 0.548
23,AGGGAAAUGUCCAAAACAUTT against CYB5A,inactive: 0.226
24,CAUUUUGAAUGAGAUUGUATT against SLC1A2,inactive: 0.249
25,GCAUCGUGCUUCACAACAUTT against RNF152,inactive: -0.745
26,CCUGUUACAUUAAGUAGAATT against P2RY5,inactive: 0.0278
27,CCCUAUUACCCUAUUCUUATT against RAB6A,inactive: 0.102
28,GCAAGGGUCUCGGAUUAUATT against TMPRSS12,inactive: 0.0961
29,GCCUCAAAGCAGCACCUAATT against DIO3,inactive: 0.0911
30,GAGUUCAUGUGAUUCGCAATT against TBX15,inactive: 0.265

# Given as tab-separated lines: part of the list above.
row	Sequence	median seed-adjusted z-score
1	ACAUGAGUAUCCAUACGAATT against LOC650864	inactive: 0.214
2	GAGCCUCCUCAAAUCCAAATT against SERPING1	inactive: -0.244
